No constants are given. Whether binding was seen depends on the method and setting. Binding seen in cells or lysates may run through a third protein. Here binding means that the protein was enriched with, or labelled near, the bait; the list need not be complete. Where a sequence is shown, tags or fusion partners need not be part of it.
Molecular target: T1, NLR family pyrin domain containing 4 (mouse NLRP4, Nlrp4e), 3xFLAG-tagged (mouse) (UniProt Q66X19)
T1 sequence: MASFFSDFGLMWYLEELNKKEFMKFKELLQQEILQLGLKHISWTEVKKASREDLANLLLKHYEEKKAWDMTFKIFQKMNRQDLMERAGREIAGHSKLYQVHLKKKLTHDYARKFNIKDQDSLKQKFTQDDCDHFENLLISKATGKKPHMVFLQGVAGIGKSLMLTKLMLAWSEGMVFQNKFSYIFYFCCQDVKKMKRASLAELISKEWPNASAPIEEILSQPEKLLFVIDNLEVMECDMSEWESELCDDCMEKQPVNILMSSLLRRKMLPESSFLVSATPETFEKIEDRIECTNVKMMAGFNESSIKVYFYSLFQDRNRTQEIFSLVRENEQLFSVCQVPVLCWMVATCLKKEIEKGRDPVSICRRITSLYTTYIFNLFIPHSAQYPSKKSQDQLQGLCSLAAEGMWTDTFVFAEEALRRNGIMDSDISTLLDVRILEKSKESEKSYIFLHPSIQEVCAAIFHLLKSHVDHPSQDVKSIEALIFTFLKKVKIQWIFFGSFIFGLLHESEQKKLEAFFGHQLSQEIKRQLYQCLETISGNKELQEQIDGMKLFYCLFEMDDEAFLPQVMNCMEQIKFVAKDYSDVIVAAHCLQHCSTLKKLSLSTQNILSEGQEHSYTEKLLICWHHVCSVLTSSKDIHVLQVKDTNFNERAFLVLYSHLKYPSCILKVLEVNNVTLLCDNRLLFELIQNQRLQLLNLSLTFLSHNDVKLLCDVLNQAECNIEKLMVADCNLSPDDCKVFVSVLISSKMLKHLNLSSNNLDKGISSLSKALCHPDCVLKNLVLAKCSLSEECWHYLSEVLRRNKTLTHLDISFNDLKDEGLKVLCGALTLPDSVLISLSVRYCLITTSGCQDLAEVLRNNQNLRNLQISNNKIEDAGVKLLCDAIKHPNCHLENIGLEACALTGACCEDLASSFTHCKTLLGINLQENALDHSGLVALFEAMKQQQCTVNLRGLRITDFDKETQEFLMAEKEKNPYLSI
Assay: affinity purification with mass spectrometry; flag antibody incubated with 4 mg lysate of LLC OE cells overnight at 4 °C, Protein A/G magnetic beads, RIPA buffer, eluted in SDS loading buffer, SDS-PAGE, LC-MS/MS

The chains behind the UniProt entries cited, without tags or fusion partners.
UniProt E9Q616: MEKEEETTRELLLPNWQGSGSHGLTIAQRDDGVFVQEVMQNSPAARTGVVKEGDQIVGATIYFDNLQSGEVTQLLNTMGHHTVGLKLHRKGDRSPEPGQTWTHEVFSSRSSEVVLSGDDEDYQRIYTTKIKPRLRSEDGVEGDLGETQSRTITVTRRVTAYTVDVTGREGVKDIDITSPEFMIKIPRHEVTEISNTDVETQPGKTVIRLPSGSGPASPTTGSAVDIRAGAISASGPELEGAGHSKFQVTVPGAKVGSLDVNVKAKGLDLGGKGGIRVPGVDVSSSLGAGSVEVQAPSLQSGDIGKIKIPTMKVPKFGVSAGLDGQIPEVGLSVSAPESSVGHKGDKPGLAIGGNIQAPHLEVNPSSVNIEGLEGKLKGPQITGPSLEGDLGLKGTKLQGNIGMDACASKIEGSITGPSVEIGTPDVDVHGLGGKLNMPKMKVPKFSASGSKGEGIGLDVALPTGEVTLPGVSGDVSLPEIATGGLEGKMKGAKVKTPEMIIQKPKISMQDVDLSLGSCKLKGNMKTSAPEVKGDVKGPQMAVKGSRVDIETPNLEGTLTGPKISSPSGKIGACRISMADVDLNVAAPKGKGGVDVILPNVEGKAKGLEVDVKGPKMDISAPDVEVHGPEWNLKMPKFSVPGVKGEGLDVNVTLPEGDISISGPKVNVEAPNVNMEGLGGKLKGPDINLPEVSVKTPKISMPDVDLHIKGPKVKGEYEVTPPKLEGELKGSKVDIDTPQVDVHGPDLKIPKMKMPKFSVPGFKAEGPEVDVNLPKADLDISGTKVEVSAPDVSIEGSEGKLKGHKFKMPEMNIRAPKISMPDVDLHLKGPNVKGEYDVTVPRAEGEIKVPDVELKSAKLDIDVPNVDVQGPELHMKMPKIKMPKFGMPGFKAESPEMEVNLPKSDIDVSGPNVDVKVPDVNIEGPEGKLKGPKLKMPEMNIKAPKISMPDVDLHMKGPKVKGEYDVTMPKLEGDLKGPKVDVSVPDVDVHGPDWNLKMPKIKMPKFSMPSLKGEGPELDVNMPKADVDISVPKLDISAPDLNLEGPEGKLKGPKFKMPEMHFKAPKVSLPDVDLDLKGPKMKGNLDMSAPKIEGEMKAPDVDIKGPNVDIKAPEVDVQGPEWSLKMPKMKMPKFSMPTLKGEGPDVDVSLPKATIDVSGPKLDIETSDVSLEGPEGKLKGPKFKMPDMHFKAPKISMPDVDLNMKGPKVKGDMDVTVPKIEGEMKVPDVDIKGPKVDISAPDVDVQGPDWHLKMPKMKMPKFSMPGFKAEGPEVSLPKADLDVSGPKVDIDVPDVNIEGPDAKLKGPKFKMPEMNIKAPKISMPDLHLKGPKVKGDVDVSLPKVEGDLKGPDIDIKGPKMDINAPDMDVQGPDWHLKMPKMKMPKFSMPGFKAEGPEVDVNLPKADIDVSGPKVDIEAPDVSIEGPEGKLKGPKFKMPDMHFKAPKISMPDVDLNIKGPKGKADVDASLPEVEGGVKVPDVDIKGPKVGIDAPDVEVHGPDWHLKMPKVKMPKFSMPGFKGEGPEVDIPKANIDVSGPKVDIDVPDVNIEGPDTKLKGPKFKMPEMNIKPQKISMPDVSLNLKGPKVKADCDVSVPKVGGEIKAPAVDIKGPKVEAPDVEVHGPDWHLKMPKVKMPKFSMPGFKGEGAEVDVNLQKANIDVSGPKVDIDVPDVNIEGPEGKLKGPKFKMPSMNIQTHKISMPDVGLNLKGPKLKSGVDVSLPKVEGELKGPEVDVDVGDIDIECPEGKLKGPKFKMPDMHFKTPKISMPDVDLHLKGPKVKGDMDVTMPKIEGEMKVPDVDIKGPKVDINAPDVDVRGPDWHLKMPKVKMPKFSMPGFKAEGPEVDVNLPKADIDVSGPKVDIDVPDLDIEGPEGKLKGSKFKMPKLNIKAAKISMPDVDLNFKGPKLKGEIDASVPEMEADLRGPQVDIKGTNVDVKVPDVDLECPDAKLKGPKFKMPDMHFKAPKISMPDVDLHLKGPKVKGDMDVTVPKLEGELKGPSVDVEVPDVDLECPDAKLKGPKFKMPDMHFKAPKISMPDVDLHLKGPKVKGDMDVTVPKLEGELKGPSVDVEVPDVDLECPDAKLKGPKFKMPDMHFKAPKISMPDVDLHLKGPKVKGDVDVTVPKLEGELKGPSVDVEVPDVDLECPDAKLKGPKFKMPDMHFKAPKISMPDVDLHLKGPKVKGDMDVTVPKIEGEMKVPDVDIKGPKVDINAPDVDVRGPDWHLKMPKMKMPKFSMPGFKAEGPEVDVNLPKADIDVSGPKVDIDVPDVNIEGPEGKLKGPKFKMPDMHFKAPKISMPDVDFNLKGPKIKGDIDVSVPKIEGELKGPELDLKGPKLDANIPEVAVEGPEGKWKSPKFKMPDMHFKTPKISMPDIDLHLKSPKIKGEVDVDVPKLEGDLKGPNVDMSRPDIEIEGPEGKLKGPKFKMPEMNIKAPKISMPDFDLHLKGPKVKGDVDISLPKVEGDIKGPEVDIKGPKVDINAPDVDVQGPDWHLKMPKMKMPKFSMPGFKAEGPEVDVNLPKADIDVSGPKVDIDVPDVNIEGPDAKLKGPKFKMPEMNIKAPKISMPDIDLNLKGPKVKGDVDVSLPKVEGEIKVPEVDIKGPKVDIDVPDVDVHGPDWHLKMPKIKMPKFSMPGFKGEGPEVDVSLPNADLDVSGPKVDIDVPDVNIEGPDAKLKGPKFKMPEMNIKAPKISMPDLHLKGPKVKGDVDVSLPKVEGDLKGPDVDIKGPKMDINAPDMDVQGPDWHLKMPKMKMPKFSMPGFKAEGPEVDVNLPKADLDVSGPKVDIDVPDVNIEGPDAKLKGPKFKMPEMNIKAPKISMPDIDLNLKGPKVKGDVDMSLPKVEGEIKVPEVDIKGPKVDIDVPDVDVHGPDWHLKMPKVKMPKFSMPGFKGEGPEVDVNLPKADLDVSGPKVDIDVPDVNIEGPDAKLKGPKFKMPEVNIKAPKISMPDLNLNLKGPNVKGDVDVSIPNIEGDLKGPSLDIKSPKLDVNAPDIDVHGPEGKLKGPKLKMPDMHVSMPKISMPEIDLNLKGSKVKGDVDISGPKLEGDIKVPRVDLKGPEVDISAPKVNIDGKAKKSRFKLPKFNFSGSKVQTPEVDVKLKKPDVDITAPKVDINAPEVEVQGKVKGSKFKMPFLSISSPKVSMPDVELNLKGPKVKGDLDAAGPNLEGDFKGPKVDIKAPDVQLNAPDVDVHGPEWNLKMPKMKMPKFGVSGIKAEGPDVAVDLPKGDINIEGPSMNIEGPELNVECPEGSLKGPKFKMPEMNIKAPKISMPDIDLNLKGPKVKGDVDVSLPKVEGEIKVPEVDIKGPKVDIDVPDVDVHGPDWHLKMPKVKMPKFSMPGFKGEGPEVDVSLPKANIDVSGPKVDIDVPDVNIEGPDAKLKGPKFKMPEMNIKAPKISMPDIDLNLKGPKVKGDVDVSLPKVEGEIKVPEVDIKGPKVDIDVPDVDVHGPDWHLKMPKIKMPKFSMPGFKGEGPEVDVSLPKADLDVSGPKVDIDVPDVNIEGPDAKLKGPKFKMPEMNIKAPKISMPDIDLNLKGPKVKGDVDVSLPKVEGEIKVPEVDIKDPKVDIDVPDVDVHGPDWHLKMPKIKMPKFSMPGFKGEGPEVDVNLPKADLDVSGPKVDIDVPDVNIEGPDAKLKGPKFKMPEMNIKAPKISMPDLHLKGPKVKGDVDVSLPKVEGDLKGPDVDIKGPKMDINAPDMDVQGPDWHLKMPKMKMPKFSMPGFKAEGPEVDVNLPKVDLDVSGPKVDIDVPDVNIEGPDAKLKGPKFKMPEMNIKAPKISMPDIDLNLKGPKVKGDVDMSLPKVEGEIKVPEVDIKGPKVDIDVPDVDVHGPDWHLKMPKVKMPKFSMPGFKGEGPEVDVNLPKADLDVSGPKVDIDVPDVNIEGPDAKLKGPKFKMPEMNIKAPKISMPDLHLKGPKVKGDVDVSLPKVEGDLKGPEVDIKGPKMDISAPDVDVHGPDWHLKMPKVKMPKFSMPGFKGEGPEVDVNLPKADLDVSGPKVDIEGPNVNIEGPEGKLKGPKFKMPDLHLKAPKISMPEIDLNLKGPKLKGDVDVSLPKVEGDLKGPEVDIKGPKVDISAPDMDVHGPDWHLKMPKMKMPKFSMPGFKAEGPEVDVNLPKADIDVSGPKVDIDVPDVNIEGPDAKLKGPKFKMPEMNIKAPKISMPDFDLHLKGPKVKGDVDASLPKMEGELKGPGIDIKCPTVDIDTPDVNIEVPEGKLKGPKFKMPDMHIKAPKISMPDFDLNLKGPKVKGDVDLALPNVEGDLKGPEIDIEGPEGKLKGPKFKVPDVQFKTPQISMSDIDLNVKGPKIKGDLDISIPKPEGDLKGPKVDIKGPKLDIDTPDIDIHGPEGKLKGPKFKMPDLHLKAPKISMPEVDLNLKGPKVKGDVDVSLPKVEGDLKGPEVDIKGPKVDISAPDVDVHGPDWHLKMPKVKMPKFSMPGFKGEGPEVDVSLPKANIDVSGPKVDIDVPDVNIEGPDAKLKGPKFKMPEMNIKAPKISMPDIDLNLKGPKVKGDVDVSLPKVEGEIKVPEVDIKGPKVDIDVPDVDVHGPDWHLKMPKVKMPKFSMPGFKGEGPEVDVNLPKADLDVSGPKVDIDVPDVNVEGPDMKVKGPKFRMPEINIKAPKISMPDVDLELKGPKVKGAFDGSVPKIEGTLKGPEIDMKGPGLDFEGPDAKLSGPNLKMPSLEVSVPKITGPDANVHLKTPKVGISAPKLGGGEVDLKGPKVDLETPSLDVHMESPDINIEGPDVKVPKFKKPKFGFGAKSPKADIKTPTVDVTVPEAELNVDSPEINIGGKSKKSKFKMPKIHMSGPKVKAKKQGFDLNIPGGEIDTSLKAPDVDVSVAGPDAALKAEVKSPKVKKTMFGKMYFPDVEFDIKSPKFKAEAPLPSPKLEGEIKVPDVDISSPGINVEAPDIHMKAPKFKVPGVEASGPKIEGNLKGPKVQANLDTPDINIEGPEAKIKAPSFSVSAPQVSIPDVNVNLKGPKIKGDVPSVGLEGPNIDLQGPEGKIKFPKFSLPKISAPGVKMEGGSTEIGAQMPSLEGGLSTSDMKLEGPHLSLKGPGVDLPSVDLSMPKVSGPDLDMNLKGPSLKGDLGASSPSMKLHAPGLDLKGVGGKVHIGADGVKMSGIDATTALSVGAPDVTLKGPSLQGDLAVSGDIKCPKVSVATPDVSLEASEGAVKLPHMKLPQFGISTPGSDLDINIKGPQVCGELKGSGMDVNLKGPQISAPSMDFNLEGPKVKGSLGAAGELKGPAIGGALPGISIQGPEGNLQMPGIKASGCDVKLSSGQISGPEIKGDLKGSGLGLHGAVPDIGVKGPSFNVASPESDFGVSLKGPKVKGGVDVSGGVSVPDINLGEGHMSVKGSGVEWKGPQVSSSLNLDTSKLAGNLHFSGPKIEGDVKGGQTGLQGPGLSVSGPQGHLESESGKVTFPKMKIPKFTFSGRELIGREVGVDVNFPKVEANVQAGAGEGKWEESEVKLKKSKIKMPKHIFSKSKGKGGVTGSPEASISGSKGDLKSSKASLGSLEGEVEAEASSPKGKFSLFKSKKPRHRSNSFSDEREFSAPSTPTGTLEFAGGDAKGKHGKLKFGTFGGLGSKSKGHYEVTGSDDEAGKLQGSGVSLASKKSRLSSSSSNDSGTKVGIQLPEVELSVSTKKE
UniProt P62715: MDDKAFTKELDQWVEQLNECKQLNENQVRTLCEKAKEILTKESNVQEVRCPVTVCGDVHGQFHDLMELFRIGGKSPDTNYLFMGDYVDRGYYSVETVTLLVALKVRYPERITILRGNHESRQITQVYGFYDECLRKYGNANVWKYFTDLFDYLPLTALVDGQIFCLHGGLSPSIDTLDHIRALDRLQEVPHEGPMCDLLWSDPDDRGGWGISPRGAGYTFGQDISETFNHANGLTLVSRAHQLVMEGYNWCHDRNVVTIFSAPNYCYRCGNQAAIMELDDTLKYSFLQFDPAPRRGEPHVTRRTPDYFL

Row | binding | Substance
1 | binds | AHNAK (from UniProt E9Q616 1-5656)
2 | binds | PPP2CB, beta isoform of the catalytic subunit of PP2A (from UniProt P62715 1-309) (enzyme)

Source: publication PMC11909883
